Experimental findings from publication PMC12862363, “AURKB-driven dissolution of CIZ1–RNA assemblies from the inactive X chromosome in mitosis” (Nucleic Acids Research, 2026) are described below.

Data set [1] addresses T1, C181WT (mCIZ1 C-terminal fragment) (Mus musculus) (UniProt Q8VEH2).
T1 sequence (looked up): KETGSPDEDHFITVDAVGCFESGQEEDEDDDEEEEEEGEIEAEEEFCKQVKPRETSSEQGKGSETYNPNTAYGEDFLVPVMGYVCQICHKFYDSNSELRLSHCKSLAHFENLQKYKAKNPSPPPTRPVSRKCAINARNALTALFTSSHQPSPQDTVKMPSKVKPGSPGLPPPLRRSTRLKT
Nature of the data set: EMSA. As to conditions: 10 mM Tris-HCl pH 7, 30 mM NaCl, 2.5 mM MgCl2, 0.1% IGEPAL CA-630, 0.1 mg/ml yeast tRNA, 1.5% RNaseOUT, 0.2 mM EDTA, 0.2 mM DTT, 30 C 20 min; 0.8% agarose/TBE at 4 C; recombinant protein; residues 665-845; protein details: N-terminal GST removed with PreScission protease; label: digoxigenin (DIG-11-UTP, internal); probe letters rebuilt from the primers and the genome. (A gel shift assay detects complexes by their altered migration in electrophoresis.)

In data set [2] the target is T2, C179WT (hCIZ1 C-terminal fragment) (Homo sapiens) (UniProt Q9ULV3).
T2 sequence (looked up): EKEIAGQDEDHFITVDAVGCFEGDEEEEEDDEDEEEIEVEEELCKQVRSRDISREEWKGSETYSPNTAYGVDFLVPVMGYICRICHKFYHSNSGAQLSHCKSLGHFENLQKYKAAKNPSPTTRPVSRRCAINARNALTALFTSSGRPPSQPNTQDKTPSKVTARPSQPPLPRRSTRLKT
Nature of the data set: EMSA. As to conditions: 0.66 nM RNA, yeast tRNA 0.1 mg/ml; 10 mM Tris-HCl pH 7, 30 mM NaCl, 2.5 mM MgCl2, 0.1% IGEPAL CA-630, 0.1 mg/ml yeast tRNA, 1.5% RNaseOUT, 0.2 mM EDTA, 0.2 mM DTT, 30 C 20 min; 0.8% agarose/TBE at 4 C; recombinant protein; residues 720-898; label: digoxigenin (DIG-11-UTP, internal); probe letters rebuilt from the primers and the ….

Where a protein sequence is shown, tags need not be part of it.

Consider “GGGAGCACUAGCUAUGGCUCUCUGUUUUAUCUAUCUGGUUGCUAUUUCUCUUAGCUUUUCUUUCACUCCUGCCUUUCGUGACUCCCCUUUGGGUCACAUGUUGCAUGCAUCCCUCUCUUUUUCUUGUGCUCACCCCACUUGUUCUUUGUUCAAGUUCUCUUUGUCAGUCCAUUUCAGUUUUCUUUCUGCUGCUUCUAUCCUUAGUGAAUUCUUGUUUACAUUUCUUCCCUGCCUUUCUUGGGCCACUUUCUCUGUUUUCUUUUGUAUUUGUGUCUCUUUGCUAUUGGUGGAUUUCUUAUCUCAGCAUCAUUCUGUUGCUUUGUGUUUGCUUGUGUUUCUAUCUUCUACUUUCCUCCUUUCUGUUCACUUUGAGCAUUUCAUCUCUUUACAAGUCUGUGUCUCUCUUGUAUUCUAAAGUAAUCCUUUCUUGGAUGUUUCUUUGUAUGUACAUGUGCGUGUGUGCAUGUGUGUUAUGUG [Xist repeat E RNA probe]”, for which the binding result in data set [1] is “binds”. For the same sequence, the binding signal (% probe shifted at 5 µM protein) in data set [2] came out at 99.
